# In the supplement of paper PMC3334620:
# Over roughly 33,000 sequences, “E-score (-0.5 to 0.5)” has its median near -0.016; the highest 2% begin near 0.3. Some of the results follow.
# Target: T1, Yer184c (UniProt P39961)
# T1 sequence: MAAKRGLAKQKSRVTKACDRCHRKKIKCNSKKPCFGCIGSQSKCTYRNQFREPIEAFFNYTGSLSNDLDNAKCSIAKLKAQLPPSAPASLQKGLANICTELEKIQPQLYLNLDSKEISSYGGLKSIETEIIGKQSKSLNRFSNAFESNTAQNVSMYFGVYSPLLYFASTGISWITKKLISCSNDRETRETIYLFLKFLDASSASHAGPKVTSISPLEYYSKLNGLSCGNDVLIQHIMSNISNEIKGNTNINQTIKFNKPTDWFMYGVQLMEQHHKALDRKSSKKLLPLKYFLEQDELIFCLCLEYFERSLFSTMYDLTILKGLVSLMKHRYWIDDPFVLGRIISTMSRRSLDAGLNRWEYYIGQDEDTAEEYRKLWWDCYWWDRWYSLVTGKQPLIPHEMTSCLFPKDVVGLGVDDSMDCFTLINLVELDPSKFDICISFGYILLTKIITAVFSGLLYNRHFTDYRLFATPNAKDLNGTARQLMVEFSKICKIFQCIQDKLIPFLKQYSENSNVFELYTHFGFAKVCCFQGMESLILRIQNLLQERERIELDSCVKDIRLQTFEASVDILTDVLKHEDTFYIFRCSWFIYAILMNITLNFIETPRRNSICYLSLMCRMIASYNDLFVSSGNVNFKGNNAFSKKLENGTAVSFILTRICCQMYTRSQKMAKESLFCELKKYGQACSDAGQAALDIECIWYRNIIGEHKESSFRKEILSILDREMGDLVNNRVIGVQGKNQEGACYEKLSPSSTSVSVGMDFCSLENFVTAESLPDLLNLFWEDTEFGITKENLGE
# Test: PBM E-score (8-mer binding enrichment) (E-score (-0.5 to 0.5)); higher = stronger / more preferred TF binding
# Conditions: protein concentration: 100 nM; construct: GST-full length
# Outline: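 Universal all-10-mer Agilent arrays, fresh or stripped once, were converted to double-stranded form by primer extension. GST-tagged yeast transcription factors from PURExpress in vitro transcription/translation, full-length or DNA-binding domain only, were applied at about 100-200 nM and detected with fluorescent anti-GST. After masliner normalisation, the Universal PBM Analysis Suite scored each ungapped eight-base word together with its reverse complement by E-score.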
row,Sequence,PBM E-score
1,AAAATGGG,-0.141
2,CACATTAC,0.0475
3,AGCTCGGC,0.316
4,CGGTCATC,-0.0984
5,AGCCACTA,-0.112
6,GAGAAGGA,-0.183
7,CACTATAG,-0.0432
8,AGCCTGAT,-0.0829
9,GGCGTCGA,0.142
10,ATACGCAC,0.0199
11,ATCGTCCA,-0.241
12,TGTGGGAA,-0.207
13,CCGACCTC,0.0602
14,CTCAGACA,-0.0841
15,AATCATTG,-0.128
16,ACGCCGTC,0.0367
17,ACTAATGC,0.223
18,AAGAACTG,-0.018
19,CGGAGATC,0.258
20,CAACTCTA,-0.0145
21,GTCAATAA,0.158
22,TATGATGA,0.14
23,ACCTTATG,-0.155
24,CGCTACAA,0.0421
25,AAGTAATG,0.0676

row,Sequence,PBM E-score
1,AATGCTAG,-0.0812
2,AGTTCGCC,0.151
3,ATGTGGCA,-0.1
4,CGGACGGC,0.182
5,AAGCGATA,-0.0896
6,CCGGGCCA,0.14
7,GTAAAGCA,0.0515
8,ATAAATAC,0.281
9,GCGGGCGA,0.156
10,CGAAACGA,0.17
11,AAGTTTTG,0.0605
12,CAGTCGGA,-0.00198
13,AGATCTAC,-0.107
14,ATAGATGC,-0.102
15,GACCCGTA,-0.157
16,CTGAGTGC,-0.147
17,CTACTAAA,0.0599
18,CTTGGTTA,0.0322
19,CATGCCAA,-0.0971
20,ATGAAAGA,0.0537
21,AACTCCCG,0.269
22,TTACTCAA,0.104
23,ACTCGGCC,0.121
24,CTTCCCCC,-0.409
25,ATGCATAC,-0.103

row,Sequence,PBM E-score
1,CGACTCCG,0.0498
2,TGGGCAAA,-0.0623
3,AAATAATC,0.159
4,ACGCGTTC,0.0869
5,AAAGCGCA,-0.14
6,CTAAAATA,0.0456
7,GAGCCATC,-0.122
8,CCACGAAA,-0.0399
9,CCCTCCCG,-0.0304
10,ACTTGATA,0.0929
11,CTGCGCCC,-0.272
12,CGATTGCG,-0.0268
13,CCTTTACC,-0.142
14,AGTGGTGA,-0.00186
15,AGCCATAG,-0.242
16,ACAAAACA,0.176
17,CCGGACGC,0.198
18,ATGTAGTG,-0.172
19,GTTATAAA,0.0949
20,CTCACAGA,0.0312
21,AGTTGCAG,-0.132
22,GTTAGTAA,0.0718
23,AAGACTTG,-0.168
24,ACGAACAT,0.171
25,CGCTGTAA,0.0542

# In a second layout: entries from further up.
row	Sequence	PBM E-score
9	CCCTCCCG	-0.0304
10	ACTTGATA	0.0929

# Following part:

row,Sequence,PBM E-score
1,ACACATTG,0.0319
2,ATTGACTG,-0.0823
3,TTATACAA,0.313
4,ATTTTCGG,0.377
5,CATCTCCA,-0.107
6,CCGGGACG,0.117
7,ACTCCCAT,-0.153
8,GGCCTCCC,-0.206
9,CTTCTGGA,0.104
10,AGAATTCA,0.066
11,AGGGCCAG,-0.31
12,TGCTTCCA,-0.199
13,ACTGCAGT,-0.0631
14,TGGGAGAA,-0.135
15,ATCAGCCG,0.275
16,ACATCCGC,0.252
17,CATCCGAC,0.247
18,ACAGGATG,-0.0427
19,ACAGGAGA,0.0689
20,ACTCCCAG,-0.105
21,GGGATTAA,0.128
22,ATAAGGAA,-0.0247
23,GTCATCTA,0.015
24,AGAAATCT,0.0283
25,GACATGCC,0.0347

row,Sequence,PBM E-score
1,AGCCCTAC,-0.0944
2,GTGTTGCA,0.0685
3,CTATTAAC,0.208
4,CAATAGCG,-0.141
5,ATCAACAG,0.0658
6,AGATAGAA,-0.0793
7,TAAACCCA,-0.0632
8,CTTATCGA,0.0828
9,AGCTCCAT,-0.156
10,GGTATATA,0.0952
11,CATGAGGC,-0.23
12,GTCTATAA,0.0811
13,ACACTATA,0.101
14,CTCCGTGC,0.121
15,ACAGGGAC,-0.0341
16,GTGAGCAA,-0.00836
17,GCGATGCC,-0.151
18,CCTAGGAC,-0.247
19,GAGTCAGC,-0.101
20,CCCCTCAC,-0.118
21,GCTTCTGA,0.0583
22,AGACATGA,-0.164
23,GGAACTTA,0.157
24,AAGAGCGT,-0.0919
25,ATTCACAC,0.0656

# Reformatted: entries from further up.
row	Sequence	PBM E-score
4	CGGACGGC	0.182
5	AAGCGATA	-0.0896

# More records:

row,Sequence,PBM E-score
1,GCTACGCA,-0.0296
2,AAGATAGG,-0.226
3,AGCATATG,-0.242
4,AAGGCCCG,-0.093
5,ATTGGGGC,-0.252
6,ACAAATCG,0.151
7,AACCTATG,-0.088
8,CGGTAAGC,0.106
9,AGCTTAAA,0.118
10,CCGCAAGC,-0.131
11,GTCGCGAC,0.315
12,CACGTGCA,-0.175
13,CTTAGCAA,0.0294
14,ACTGATTC,-0.0185
15,GAAATTCA,0.171
16,AGAACATC,0.00399
17,ACAAAGGC,-0.0429
18,AATGTGCG,-0.028
19,AACGTGCC,-0.0425
20,CTAACTTC,0.191
21,AGCTTCTG,0.0105
22,GGCACTGA,-0.0208
23,GGACCTCA,-0.121
24,GCTTCAAA,0.0629
25,ATGAGGGC,-0.167

# Reformatted as tab-separated lines: part of the list above
row	Sequence	PBM E-score
5	ATTGGGGC	-0.252
6	ACAAATCG	0.151

# Remaining list, next part.

row,Sequence,PBM E-score
1,AACAACAT,0.0992
2,GCGCTTAC,-0.0145
3,CACCCGCA,-0.107
4,CACAGAGC,-0.0983
5,AGATTTTG,0.174
6,GACATAAC,0.0217
7,AGTGTAGG,-0.0339
8,ACTCAAGT,-0.0658
9,TGCGGACA,0.124
10,GGGCTACA,-0.198
11,CAACGCCC,-0.167
12,TAAACAAA,0.0719
13,CGGCTTGA,0.127
14,CGCTGCTC,-0.224
15,CCTTAATC,-0.0417
16,AAATTCGC,0.176
17,CTACAATC,0.0899
18,CCGACAGG,0.0751
19,CAATACAG,-0.0672
20,ATCGCGTG,0.102
21,CTTTGGAA,-0.00187
22,CGGATATA,0.389
